Laboratory results published in paper PMC10895845.
Numbering of substitutions follows the chain as printed. Results are given in words; binding and its absence hold for the method and conditions named. Binding seen in cells or lysates may run through a third protein. Some results given as binding are weak or reduced against the parent protein; the word gives no strength. Tags and fused reporters may be left off the sequences shown.

The chains behind the UniProt entries cited, without tags or fusion partners.
UniProt Q8WUM4: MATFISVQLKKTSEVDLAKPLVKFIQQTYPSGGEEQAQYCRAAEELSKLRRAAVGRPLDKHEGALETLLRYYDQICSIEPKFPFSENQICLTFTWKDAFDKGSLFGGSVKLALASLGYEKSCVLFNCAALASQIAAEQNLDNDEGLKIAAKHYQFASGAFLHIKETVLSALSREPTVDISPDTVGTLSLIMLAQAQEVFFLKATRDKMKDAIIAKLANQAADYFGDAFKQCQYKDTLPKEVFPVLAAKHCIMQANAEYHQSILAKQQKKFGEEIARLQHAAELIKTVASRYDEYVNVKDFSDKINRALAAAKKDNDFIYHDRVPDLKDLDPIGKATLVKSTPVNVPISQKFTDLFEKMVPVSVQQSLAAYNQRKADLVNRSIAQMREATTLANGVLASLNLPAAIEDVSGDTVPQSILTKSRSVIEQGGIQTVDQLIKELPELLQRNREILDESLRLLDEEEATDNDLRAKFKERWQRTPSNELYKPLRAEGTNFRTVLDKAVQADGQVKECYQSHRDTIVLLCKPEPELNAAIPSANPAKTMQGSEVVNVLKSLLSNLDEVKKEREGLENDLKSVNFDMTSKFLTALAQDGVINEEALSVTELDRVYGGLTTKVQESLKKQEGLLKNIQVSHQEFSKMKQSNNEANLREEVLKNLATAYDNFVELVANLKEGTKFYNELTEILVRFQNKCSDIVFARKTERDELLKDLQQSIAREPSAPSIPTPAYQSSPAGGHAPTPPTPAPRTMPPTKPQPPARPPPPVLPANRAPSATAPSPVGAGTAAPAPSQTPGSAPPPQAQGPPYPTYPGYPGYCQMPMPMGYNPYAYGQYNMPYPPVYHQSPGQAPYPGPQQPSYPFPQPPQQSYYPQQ

B1: WT-VMP1-flag (flag-tagged wild-type Vacuole Membrane Protein 1) (protein, UniProt Q96GC9 1-406)
chain: MAENGKNCDQRRVAMNKEHHNGNFTDPSSVNEKKRREREERQNIVLWRQPLITLQYFSLEILVILKEWTSKLWHRQSIVVSFLLLLAVLIATYYVEGVHQQYVQRIEKQFLLYAYWIGLGILSSVGLGTGLHTFLLYLGPHIASVTLAAYECNSVNFPEPPYPDQIICPDEEGTEGTISLWSIISKVRIEACMWGIGTAIGELPPYFMARAARLSGAEPDDEEYQEFEEMLEHAESAQDFASRAKLAVQKLVQKVGFFGILACASIPNPLFDLAGITCGHFLVPFWTFFGATLIGKAIIKMHIQKIFVIITFSKHIVEQMVAFIGAVPGIGPSLQKPFQEYLEAQRQKLHHKSEMGTPQGENWLSWMFEKLVVVMVCYFILSIINSMAQSYAKRIQQRLNSEEKTK
modifications: S-palmitoylated at cysteine 263 and 278 (in cells, by ZDHHC3)
B2: MT-VMP1-flag (VMP1 C263, 278S palmitoylation-site mutant, flag-tagged) (protein, UniProt Q96GC9 1-406)
chain: B1 chain with C263S, C278S

Target: His-ALIX (UniProt Q8WUM4)
Assay: co-IP; cells (HEK293T by the text, SCs by the legend) transfected with His-ALIX and WT-VMP1 or MT-VMP1; immunoprecipitation with anti-His antibody, western blot

Row | Binder | binding
1 | B1 | binds
2 | B2 | no binding
